Reference: PubChem BioAssay AID743121 (NCATS, 2013)
Assay: 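Partners whose loss is lethal together with topoisomerase I blockade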 (primary screen). Cell system: MDA-MB-231 cells, a human breast cancer line. Reagent: single siRNA against human genes, 20 nM siRNA (0.8 pmol per well). Duration: 120 h (drug added 48 h after transfection, read 72 h later). Conditions: camptothecin 20 nM (about EC30) for 72 h; vehicle 0.1% DMSO in parallel plates. Detection: 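Cell viability by ATP luminescence (CellTiter-Glo) as % of non-targeting siRNA wells, and the log2 ratio of viability without drug over viability with camptothecin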. Reading the numbers: log2 vehicle/camptothecin viability: higher = stronger sensitisation to camptothecin; viability with camptothecin: higher = more viable cells. Active means: 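Each gene scored by redundant siRNA activity (RSA) over its individual siRNA ratios; a gene is called active at p < 0.001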.
Here is one part, drawn at random, of about 26,000 reagents. In the full data, 167 (0.63%) were called active. 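Calls are per gene from RSA p-values that are not deposited; an individual active-marked siRNA can sensitise only weakly.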 The numbers tell different reagents against one gene apart. Not all columns of the deposit are shown. No sequences are given here.

gene,reagent,log2 vehicle/camptothecin viability,viability with camptothecin (% of control),outcome
AVPR2 (arginine vasopressin receptor 2),1,0.0697,41.3,inactive
AVPR2 (arginine vasopressin receptor 2),2,0.023,79.3,inactive
AVPR2 (arginine vasopressin receptor 2),3,-0.398,77.2,inactive
AVPR2 (arginine vasopressin receptor 2),4,-0.7,119,inactive
GZMA (granzyme A),1,0.0272,78.4,inactive
GZMA (granzyme A),2,0.33,50.4,inactive
GZMA (granzyme A),3,-0.201,89.2,inactive
GZMA (granzyme A),4,-0.185,102,inactive
EPS8L1 (EPS8 signaling adaptor L1),1,-0.107,110,inactive
EPS8L1 (EPS8 signaling adaptor L1),2,-0.156,90.5,inactive
EPS8L1 (EPS8 signaling adaptor L1),3,-0.554,53.8,inactive
EPS8L1 (EPS8 signaling adaptor L1),4,-0.29,77.5,inactive
ROBO2 (roundabout guidance receptor 2),1,-0.232,21.5,inactive
ROBO2 (roundabout guidance receptor 2),2,-0.296,54.5,inactive
ROBO2 (roundabout guidance receptor 2),3,0.0881,39.1,inactive
ROBO2 (roundabout guidance receptor 2),4,-0.136,94.3,inactive
TMX2 (thioredoxin related transmembrane protein 2),1,-0.226,95.6,inactive
TMX2 (thioredoxin related transmembrane protein 2),2,0.441,60.8,inactive
TMX2 (thioredoxin related transmembrane protein 2),3,0.398,61.8,inactive
TERT (telomerase reverse transcriptase),1,0.0705,40,inactive
TERT (telomerase reverse transcriptase),2,0.555,63.2,inactive
TERT (telomerase reverse transcriptase),3,-0.415,62.8,inactive
TERT (telomerase reverse transcriptase),4,0.178,63,inactive
BRD10 (bromodomain containing 10),1,0.119,34.8,inactive
BRD10 (bromodomain containing 10),2,-0.112,96.6,inactive
BRD10 (bromodomain containing 10),3,-0.087,99.5,inactive
BRD10 (bromodomain containing 10),4,-0.484,100,inactive
FN1 (fibronectin 1),1,1.11,31.6,inactive
FN1 (fibronectin 1),2,-0.0604,98.7,inactive
FN1 (fibronectin 1),3,-0.0382,95,inactive
FN1 (fibronectin 1),4,-0.14,61.4,inactive
